Source: patent US20160194677
Construct, isoform or probe ends are uncertain for at least one entry.

Protein sequences, listed by entry. Tags and fused reporters are not part of them. Lines headed by an entry give the natural chain unless they say otherwise; changes in a name come on top.
UniProt P07636: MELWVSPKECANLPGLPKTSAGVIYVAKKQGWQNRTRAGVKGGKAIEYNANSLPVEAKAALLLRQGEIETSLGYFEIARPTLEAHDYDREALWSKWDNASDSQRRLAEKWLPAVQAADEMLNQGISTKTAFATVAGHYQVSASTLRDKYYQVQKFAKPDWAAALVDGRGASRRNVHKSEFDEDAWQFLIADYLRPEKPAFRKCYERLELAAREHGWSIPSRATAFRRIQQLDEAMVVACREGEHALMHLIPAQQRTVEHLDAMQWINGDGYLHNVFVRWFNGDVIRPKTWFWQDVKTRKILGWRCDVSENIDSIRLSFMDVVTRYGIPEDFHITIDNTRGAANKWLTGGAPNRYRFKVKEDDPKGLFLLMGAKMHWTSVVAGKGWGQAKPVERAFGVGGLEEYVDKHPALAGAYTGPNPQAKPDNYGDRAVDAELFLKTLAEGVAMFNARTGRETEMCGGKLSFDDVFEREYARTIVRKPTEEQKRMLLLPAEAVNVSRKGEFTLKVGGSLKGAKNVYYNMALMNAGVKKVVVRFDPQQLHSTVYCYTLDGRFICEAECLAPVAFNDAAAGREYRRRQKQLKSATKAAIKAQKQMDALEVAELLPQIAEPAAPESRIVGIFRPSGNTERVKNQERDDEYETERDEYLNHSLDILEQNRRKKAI

Molecular target: MuA transposase (UniProt P07636)
Experiment: enzyme reaction in vitro
Conditions: purified recombinant protein, protein details: Thermo catalogue F-750C

## GATCTGAAGCGGCGCACGAAAAACGCGAAAGCGTTTCACGATAAATGCGAAAACGTTTTCGCATTTATCGTGAAACGCTTTCGCGTTTTTCGTGCGCCGCTTCA [Hairpin MuA substrate (dUMP)]
Four iSpC3 spacers between SEQ 36 and 35, dUMP at n of SEQ 36 [position 5 dUMP (n = T), four iSpC3 spacers between SEQ 36 and 35 (between positions 54 and 55) left out], folded or branched DNA, letters built from the parent sequence and the stated change
  activity on this sequence: active

## TTTTTTTTTTTTTTTTTTTTTTTTTTTTTTTTTTTTTTTTTTTTTTTTTTGGTTGTTTCTGTTGGTGCTGATATTGCGTTTTCGCATTTATCGTGAAACGCTTTCGCGTTTTTCGTGCGCCGCTTCA / GATCTGAAGCGGCGCACGAAAAACGCGAAAGCGTTTCACGATAAATGCGAAAACTTTTTTTTTTTTTTTTTTTTTTTTTTTTTTTTTTTTTTTTTTTTTTTTTT [Y-shaped MuA substrate (dUMP)]
Four iSpC3 spacers between SEQ 34 and 35 and between SEQ 36 and 37, dUMP at n of SEQ 36 [strand 2 position 5 dUMP (n = T), four iSpC3 spacers between SEQ 34 and 35 (strand 1) and between SEQ 36 and 37 (strand 2, after position 54) left out], letters built from the parent sequence and the stated change
  activity on this sequence: active

## TTTTTTTTTTTTTTTTTTTTTTTTTTTTTTTTTTTTTTTTTTTTTTTTTTGGTTGTTTCTGTTGGTGCTGATATTGCGTTTTCGCATTTATCGTGAAACGCTTTCGCGTTTTTCGTGCGCCGCTTCA / GATCTGAAGCGGCGCACGAAAAACGCGAAAGCGTTTCACGATAAATGCGAAAAC [MuA substrate 2 (dUMP)]
Four C3 spacers between SEQ 27 and SEQ 24, dUMP at n of SEQ 26, 5' phosphate on SEQ 26 [strand 2 position 5 dUMP (n = T), strand 2 5' phosphate, four C3 spacers between SEQ 27 and SEQ 24 in strand 1 left out], letters built from the parent sequence and the stated change, variant of MuA substrate 1 (wild-type end)
  activity on this sequence: active

## TTTTTTTTTTTTTTTTTTTTTTTTTTTTTTTTTTTTTTTTTTTTTTTTTTGGTTGTTTCTGTTGGTGCTGATATTGCGTTTTCGCATTTATCGTGAAACGCTTTCGCGTTTTTCGTGCGCCGCTTCA / GATCTGAAGCGGCGCACGAAAAACGCGAAAGCGTTTCACGATAAATGCGAAAAC [MuA substrate 1 (wild-type end)]
Four C3 spacers between SEQ 27 and SEQ 24
  activity on this sequence: active
